From paper doi:10.1101/2020.02.18.954511
Results are given in words; binding and its absence hold for the method and conditions named. Some binding calls cover weakened binding; strength is not graded here.

Legend:
[1] = target: shell protein PduB’M38L (Salmonella enterica) (UniProt P37449); assay: dynamic light scattering
[2] = target: T1, diol dehydratase PduCDE (Salmonella enterica) (UniProt P37450); assay: time-resolved fluorescence anisotropy
T1 sequence 1: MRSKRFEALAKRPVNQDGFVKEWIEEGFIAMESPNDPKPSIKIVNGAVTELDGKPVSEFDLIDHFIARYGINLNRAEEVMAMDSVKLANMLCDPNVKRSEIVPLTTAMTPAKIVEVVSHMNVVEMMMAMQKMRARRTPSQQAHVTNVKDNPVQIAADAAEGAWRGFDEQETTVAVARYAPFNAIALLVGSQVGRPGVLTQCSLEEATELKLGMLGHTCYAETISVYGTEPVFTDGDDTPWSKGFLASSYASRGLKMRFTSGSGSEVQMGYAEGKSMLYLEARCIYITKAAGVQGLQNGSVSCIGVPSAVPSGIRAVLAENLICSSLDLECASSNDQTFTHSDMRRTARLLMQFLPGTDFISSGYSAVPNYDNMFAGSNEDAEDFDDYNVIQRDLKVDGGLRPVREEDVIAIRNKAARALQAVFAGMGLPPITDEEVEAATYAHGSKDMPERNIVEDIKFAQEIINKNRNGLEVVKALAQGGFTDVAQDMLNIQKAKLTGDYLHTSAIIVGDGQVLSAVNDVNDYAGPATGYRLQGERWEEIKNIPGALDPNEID
T1 sequence 2: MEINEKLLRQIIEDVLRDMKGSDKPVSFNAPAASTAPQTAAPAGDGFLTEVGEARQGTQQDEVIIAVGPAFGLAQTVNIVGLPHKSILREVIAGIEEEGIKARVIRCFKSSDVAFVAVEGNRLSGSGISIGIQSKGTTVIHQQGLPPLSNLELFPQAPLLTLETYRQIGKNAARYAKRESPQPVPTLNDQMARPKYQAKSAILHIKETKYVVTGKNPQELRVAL
T1 sequence 3: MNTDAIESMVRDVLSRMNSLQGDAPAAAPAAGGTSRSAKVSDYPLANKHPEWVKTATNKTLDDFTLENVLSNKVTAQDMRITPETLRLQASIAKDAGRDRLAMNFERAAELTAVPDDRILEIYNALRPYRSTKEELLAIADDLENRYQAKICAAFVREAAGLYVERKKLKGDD

B1: shell protein PduB’M38L (protein, UniProt P37449 1-270)
chain: MSSNELVEQIMAQVIARVATPEQQAIPGQPQPIRETALAEKSCSLTEFVGTAIGDTLGLVIANVDTALLDAMKLEKRYRSIGILGARTGAGPHIMAADEAVKATNTEVVSIELPRDTKGGAGHGSLIILGGNDVSDVKRGIEVALKELDRTFGDVYGNEAGHIELQYTARASYALEKAFGAPIGRACGIIVGAPASVGVLMADTALKSANVEVVAYSSPAHGTSFSNEAILVISGDSGAVRQAVTSAREIGKTVLATLGSEPKNDRPSYI
In the case of B1, the binding [1] is reported as “binds weakly” and the binding [2] is reported as “binds weakly”.
